# Source: article PMC6619604
# By UniProt entry, the sequences of proteins in these tests, tags left out. Residues count along the entry.
# UniProt P28799, residues 18-593: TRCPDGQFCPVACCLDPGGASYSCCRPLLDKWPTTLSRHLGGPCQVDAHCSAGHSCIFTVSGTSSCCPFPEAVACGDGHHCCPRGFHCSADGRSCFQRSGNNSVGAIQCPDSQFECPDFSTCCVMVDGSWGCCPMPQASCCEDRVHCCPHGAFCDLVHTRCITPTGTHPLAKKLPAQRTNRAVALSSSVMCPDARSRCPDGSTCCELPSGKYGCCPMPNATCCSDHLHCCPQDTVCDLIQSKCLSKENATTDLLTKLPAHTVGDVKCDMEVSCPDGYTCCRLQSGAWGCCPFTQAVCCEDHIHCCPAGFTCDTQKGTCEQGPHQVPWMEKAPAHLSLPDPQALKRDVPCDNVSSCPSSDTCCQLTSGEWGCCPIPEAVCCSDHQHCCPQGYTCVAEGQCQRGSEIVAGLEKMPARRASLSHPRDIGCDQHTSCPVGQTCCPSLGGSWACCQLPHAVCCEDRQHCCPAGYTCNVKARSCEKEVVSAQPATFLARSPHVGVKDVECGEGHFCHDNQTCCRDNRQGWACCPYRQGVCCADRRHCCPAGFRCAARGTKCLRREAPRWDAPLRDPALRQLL
# No constants are given. Whether binding was seen depends on the method and setting. Binding seen in cells or lysates may run through a third protein. Some entries that bind do so weakly or less than the wild type. Where a sequence is shown, tags or fusion partners need not be part of it.
# T1: FLAG-mPGRN (mouse progranulin) (mouse) (UniProt P28798)
# T1 sequence: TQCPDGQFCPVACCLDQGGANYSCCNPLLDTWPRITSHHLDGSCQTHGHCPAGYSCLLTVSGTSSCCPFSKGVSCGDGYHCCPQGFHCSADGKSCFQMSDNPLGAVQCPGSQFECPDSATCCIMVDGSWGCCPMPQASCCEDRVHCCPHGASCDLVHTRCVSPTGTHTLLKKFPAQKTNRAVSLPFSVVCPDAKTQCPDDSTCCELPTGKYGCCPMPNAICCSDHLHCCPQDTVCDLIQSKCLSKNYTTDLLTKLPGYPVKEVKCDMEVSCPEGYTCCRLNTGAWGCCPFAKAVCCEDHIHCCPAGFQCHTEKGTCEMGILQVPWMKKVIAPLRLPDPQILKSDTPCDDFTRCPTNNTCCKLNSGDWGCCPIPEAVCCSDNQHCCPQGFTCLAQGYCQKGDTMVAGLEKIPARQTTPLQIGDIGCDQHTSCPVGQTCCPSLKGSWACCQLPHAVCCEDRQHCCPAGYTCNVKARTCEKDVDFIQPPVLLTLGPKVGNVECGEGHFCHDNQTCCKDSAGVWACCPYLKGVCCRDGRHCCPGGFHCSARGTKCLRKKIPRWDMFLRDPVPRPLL
# B1: human GBA with a C-terminal myc tag (glucocerebrosidase, GCase) (enzyme, UniProt P04062 40-536)
# chain: ARPCIPKSFGYSSVVCVCNATYCDSFDPPTFPALGTFSRYESTRSGRRMELSMGPIQANHTGTGLLLTLQPEQKFQKVKGFGGAMTDAAALNILALSPPAQNLLLKSYFSEEGIGYNIIRVPMASCDFSIRTYTYADTPDDFQLHNFSLPEEDTKLKIPLIHRALQLAQRPVSLLASPWTSPTWLKTNGAVNGKGSLKGQPGDIYHQTWARYFVKFLDAYAEHKLQFWAVTAENEPSAGLLSGYPFQCLGFTPEHQRDFIARDLGPTLANSTHHNVRLLMLDDQRLLLPHWAKVVLTDPEAAKYVHGIAVHWYLDFLAPAKATLGETHRLFPNTMLFASEACVGSKFWEQSVRLGSWDRGMQYSHSIITNLLYHVVGWTDWNLALNPEGGPNWVRNFVDSPIIVDITKDTFYKQPMFYHLGHFSKFIPEGSQRVGLVASQKNDLDAVALMHPDGSAVVVVLNRSSKDVPLTIKDPAVGFLETISPGYSIHTYLWRRQ
# B2: mGBA-FLAG-myc (mouse GBA with C-terminal FLAG myc tag) (enzyme, UniProt P17439 20-515)
# chain: AQPCIPKSFGYSSVVCVCNASYCDSLDPVTLPALGTFSRYESTRRGRRMELSVGAIQANRTGTGLLLTLQPEKKFQKVKGFGGAMTDATALNILALSPPTQKLLLRSYFSTNGIEYNIIRVPMASCDFSIRVYTYADTPNDFQLSNFSLPEEDTKLKIPLIHQALKMSSRPISLFASPWTSPTWLKTNGRVNGKGSLKGQPGDIFHQTWANYFVKFLDAYAKYGLRFWAVTAENEPTAGLFTGYPFQCLGFTPEHQRDFISRDLGPALANSSHDVKLLMLDDQRLLLPRWAEVVLSDPEAAKYVHGIAVHWYMDFLAPAKATLGETHRLFPNTMLFASEACVGSKFWEQSVRLGSWDRGMQYSHSIITNLLYHVTGWTDWNLALNPEGGPNWVRNFVDSPIIVDIPKDAFYKQPMFYHLGHFSKFIPEGSQRVALVASESTDLETVALLRPDGSAVVVVLNRSSEDVPLTISDPDLGFLETVSPGYSIHTYLWRRQ
# Assays:
# [1] = target: FLAG-human PGRN (progranulin) (human) (UniProt P28799); assay: co-IP; HEK293T cells co-transfected; anti-PGRN immunoprecipitation from lysate; 150 mM NaCl, 50 mM Tris pH 7.5, 1% Triton X-100, 0.1% deoxycholic acid, 4°C
# [2] = target: FLAG-human PGRN (progranulin) (human) (UniProt P28799); assay: co-IP; HEK293T cells co-transfected; anti-PGRN immunoprecipitation from lysate; 150 mM NaCl, 50 mM sodium acetate pH 5.3, 1% Triton X-100, 0.1% deoxycholic acid, 4°C
# [3] = target: T1, FLAG-mPGRN (mouse progranulin) (mouse); assay: co-IP; HEK293T cells transfected with mGBA-FLAG-myc and FLAG-mPGRN; anti-myc (A) or anti-PGRN (B) immunoprecipitation, Western blot
Binder,binding [1],binding [2],binding [3]
B1,binds,binds,
B2,,,binds
